According to PubChem BioAssay AID192 (DTP/NCI, 2004):
The list does not hold the whole screen: it is rich in T/C values a quarter to a half above the control, in often repeated tests (any T/C) and in doses without a T/C. Other doses and runs of a compound stand elsewhere. T/C is the treated group as % of the vehicle group. Some doses have a count of surviving animals in place of a T/C: the source holds a T/C of zero for them, seemingly a mark for toxic or unscored doses. Some doses without a T/C left all or most animals alive at the check, yet need not have been tolerated: the source hardly ever lists a survival T/C far under the control, and the zero likely stands for such cases as well. Survivors were counted at the toxicity check, usually on the fifth day, unless a day is given; later deaths do not show. Schedules are NCI's codes, read here as Q, the interval in days (D) or hours (H), X, the number of doses. Some molecules as drawn cover several salts, stereoisomers or complexes of the source; a dose is that of the sample tested. Counts like (3×) give the number of equal values in this list. Some doses were run more than once; the values are given in rising order. For survival time, this PubChem deposit counts one and a half times the control or more as active, and values a quarter to a half above the control carry no call in these data; other NCI protocols may use other cut-offs. Some T/C values are followed by the survivors on the day toxicity was checked, most often the fifth; where none is given, no animal had died by that day.

Test system: BDF1 mice, B16 melanoma ip, median survival T/C
Assay: NCI In Vivo Anticancer Drug Screen. Data for tumor model B16 Melanoma (intraperitoneal) in B6D2F1 (BDF1) mice
Conditions: T/C endpoint: median survival time, higher T/C = longer survival
How it was run: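 Antitumor activity is assessed in mice bearing a transplanted tumor, with survival or tumor size compared against vehicle-dosed controls and expressed as T/C.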

[1] = dose: 200.0 mg/kg/injection, schedule: Q01DX009 (ip), vehicle: saline with Tween-80
[2] = dose: 400.0 mg/kg/injection, schedule: Q01DX009 (ip), vehicle: saline with Tween-80
[3] = dose: 3.12 mg/kg/injection, schedule: Q01DX009 (ip), vehicle: saline
[4] = dose: 12.0 mg/kg/injection, schedule: Q01DX009 (ip), vehicle: saline with Tween-80
[5] = dose: 12.0 mg/kg/injection, schedule: Q01DX009 (ip), vehicle: saline

Q: With COC(=O)N1C=Cc2ccccc2C1C#N (centres undefined) as the compound, how does the survivor count [1] read?
A: The survivor count was 0 of 10.

Q: How did the survivor count (dose: 0.5 mg/kg/injection, schedule: Q04DX003 (ip), vehicle: saline + alcohol) turn out when Cc1ccc(C(=O)NC2C(=O)NC(C(C)C)C(=O)N3CCCC3C(=O)N(C)CC(=O)N(C)C(C(C)C)C(=O)OC2C)c2c1Oc1c(c(C(=O)NC3C(=O)NC(C(C)C)C(=O)N4CCCC4C(=O)N(C)CC(=O)N(C)C(C(C)C)C(=O)OC3C)c3nc(CF)c(=O)oc3c1C)N2 (centres undefined) was run?
A: Its survivor count is 10 of 10.

Q: And the survivor count (dose: 1.0 mg/kg/injection, schedule: Q04DX003 (ip), vehicle: saline + alcohol)?
A: Its survivor count is 10 of 10.

Q: And the survivor count (dose: 2.0 mg/kg/injection, schedule: Q04DX003 (ip), vehicle: saline + alcohol)?
A: The survivor count was 10 of 10.

Q: What about the survivor count (dose: 4.0 mg/kg/injection, schedule: Q04DX003 (ip), vehicle: saline + alcohol) of the same compound?
A: The survivor count was 0 of 10.

Q: What about the T/C (dose: 62.5 micrograms/kg/injection, schedule: Q04DX003 (ip), vehicle: water) of the same compound?
A: Its T/C is 134 % of control.

Q: With CC(=O)Nc1ccc(Nc2ccc(C(=C3C=CC(=[N+](C)CCC#N)C=C3)c3ccc(N(C)CCC#N)cc3)cc2)cc1 as the compound, how does the T/C (dose: 12.5 mg/kg/injection, schedule: Q01DX009 (ip), vehicle: saline with Tween-80) read?
A: Its T/C is 125 % of control.

Q: What about the T/C (dose: 25.0 mg/kg/injection, schedule: Q01DX009 (ip), vehicle: saline with Tween-80) of the same compound?
A: The T/C was 134 % of control [9 of 10 alive].

Q: What about the survivor count (dose: 50.0 mg/kg/injection, schedule: Q01DX009 (ip), vehicle: saline with Tween-80) of the same compound?
A: Its survivor count is 3 of 10.

Q: And the survivor count (dose: 100.0 mg/kg/injection, schedule: Q01DX009 (ip), vehicle: saline with Tween-80)?
A: Its survivor count is 1 of 10.

Q: And the survivor count [1]?
A: The survivor count was 2 of 10.

Q: And the survivor count [2]?
A: The survivor count was 1 of 10.

Q: With N/N=C(\N)c1nn(C2OC(CO)C(O)C2O)c2ncnc(N)c12 (centres undefined) as the compound, how does the survivor count (dose: 320.0 mg/kg/injection, schedule: Q01DX005 (ip), vehicle: saline) read?
A: Its survivor count is 0 of 4.

Q: Which results are given for O=C1NC2(CCCCC2)C(=O)N1CCN(CCCl)CCCl?
A: T/C (dose: 1.5 mg/kg/injection, schedule: Q01DX009 (ip), vehicle: saline with Tween-80): 134 % of control; T/C (dose: 1.56 mg/kg/injection, schedule: Q01DX009 (ip), vehicle: saline): 128, 140, 148 % of control; T/C (dose: 3.0 mg/kg/injection, schedule: Q01DX009 (ip), vehicle: saline with Tween-80): 129 % of control; T/C (dose: 3.0 mg/kg/injection, schedule: Q01DX009 (ip), vehicle: saline): 130 % of control [9 of 10 alive]; T/C [3]: 135 [9 of 10 alive] and 149 % of control; survivor count [3]: 10 of 10; T/C (dose: 6.0 mg/kg/injection, schedule: Q01DX009 (ip), vehicle: saline with Tween-80): 136 % of control; survivor count (dose: 6.25 mg/kg/injection, schedule: Q01DX009 (ip), vehicle: saline): 10 of 10; T/C [4]: 138 % of control; survivor count [4]: 10 of 10 (2×); T/C [5]: 125 % of control; survivor count [5]: 9 of 10; survivor count (dose: 12.5 mg/kg/injection, schedule: Q01DX009 (ip), vehicle: saline): 8 of 10; survivor count (dose: 24.0 mg/kg/injection, schedule: Q01DX009 (ip), vehicle: saline with Tween-80): 8 of 10 and 10 of 10; survivor count (dose: 48.0 mg/kg/injection, schedule: Q01DX009 (ip), vehicle: saline with Tween-80): 5 of 10

Q: Nc1cc2nc3ccccc3sc-2cc1=O was tested. Which survivor count [2] did it give?
A: The survivor count was 6 of 10.
